Measurements from patent US20120294860A1 (TORAY INDUSTRIES, published 2012).
No constants are given. Whether binding was seen depends on the method and setting. For part of these data: In cells and extracts the contact can be indirect. Some entries that bind do so weakly or less than the wild type.

How the values were obtained:
[1] = target: T1, human CAPRIN-1 protein expressed on the surface of human cancer cells (human) (UniProt Q14444); assay: as described in the legend of FIG. 2 (MDA-MB-157 cells)
T1 sequence: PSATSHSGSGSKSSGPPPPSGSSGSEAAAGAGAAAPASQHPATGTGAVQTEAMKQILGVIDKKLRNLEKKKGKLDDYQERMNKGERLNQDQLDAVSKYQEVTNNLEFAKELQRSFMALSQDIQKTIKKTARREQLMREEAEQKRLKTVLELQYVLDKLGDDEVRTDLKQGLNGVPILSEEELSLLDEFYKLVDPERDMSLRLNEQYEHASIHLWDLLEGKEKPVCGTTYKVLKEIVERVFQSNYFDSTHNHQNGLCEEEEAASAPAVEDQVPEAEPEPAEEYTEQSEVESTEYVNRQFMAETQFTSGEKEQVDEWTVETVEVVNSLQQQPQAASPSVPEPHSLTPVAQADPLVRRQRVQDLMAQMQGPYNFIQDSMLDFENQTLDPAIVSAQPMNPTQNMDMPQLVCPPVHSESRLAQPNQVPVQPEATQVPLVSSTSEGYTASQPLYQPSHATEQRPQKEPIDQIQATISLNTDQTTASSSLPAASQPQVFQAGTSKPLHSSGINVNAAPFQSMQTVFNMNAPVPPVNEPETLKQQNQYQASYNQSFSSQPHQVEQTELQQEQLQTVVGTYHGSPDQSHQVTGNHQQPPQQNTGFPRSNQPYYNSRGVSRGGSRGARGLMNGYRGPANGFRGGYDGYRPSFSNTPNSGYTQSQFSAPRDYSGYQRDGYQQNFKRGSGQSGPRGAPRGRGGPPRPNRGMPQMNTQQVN

[2] = target: T1, human CAPRIN-1 protein expressed on the surface of human cancer cells (human); assay: flow cytometry on MDA-MB-231V human breast cancer cells, hybridoma culture supernatant
[3] = target: T2, polypeptide of SEQ ID NO: 37, partial CAPRIN-1 sequence (human); assay: trypsin digestion of antibody-bound reduced/alkylated CAPRIN-1, protein A beads, LC-MS of the eluate
T2 sequence (peptide): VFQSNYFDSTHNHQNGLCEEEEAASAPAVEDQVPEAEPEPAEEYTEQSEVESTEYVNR

Measured: binding

B1: anti-CAPRIN-1 monoclonal antibody #1 (antibody, V domains shown)
VH: EVQLHQFGAELVKPGASVKISCKASGYTFTDYNMDWVKQSHGKSLEWIGDINPNYDSTSYNQKFKGKATLTVDKSSSTAYMELRSLTSEDTAVYYCARSRSYDYEGFAYWGQGTLVTVSA
VL: DIQMTQSPASLSASVGETVTITCRASGNIHNYLAWYQQKQGKSPQLLVYNAKTLADGVPSRFSGSGSGTQYSLKINSLQPEDFGSYYCQHFWSTLTFGAGTKLELKR
binds: all assays above
